# Results of single-concentration screens

Chains of the proteins cited; added tags and fusions are not shown. Residues count along the entry.
UniProt Q8IDJ8, 1-583: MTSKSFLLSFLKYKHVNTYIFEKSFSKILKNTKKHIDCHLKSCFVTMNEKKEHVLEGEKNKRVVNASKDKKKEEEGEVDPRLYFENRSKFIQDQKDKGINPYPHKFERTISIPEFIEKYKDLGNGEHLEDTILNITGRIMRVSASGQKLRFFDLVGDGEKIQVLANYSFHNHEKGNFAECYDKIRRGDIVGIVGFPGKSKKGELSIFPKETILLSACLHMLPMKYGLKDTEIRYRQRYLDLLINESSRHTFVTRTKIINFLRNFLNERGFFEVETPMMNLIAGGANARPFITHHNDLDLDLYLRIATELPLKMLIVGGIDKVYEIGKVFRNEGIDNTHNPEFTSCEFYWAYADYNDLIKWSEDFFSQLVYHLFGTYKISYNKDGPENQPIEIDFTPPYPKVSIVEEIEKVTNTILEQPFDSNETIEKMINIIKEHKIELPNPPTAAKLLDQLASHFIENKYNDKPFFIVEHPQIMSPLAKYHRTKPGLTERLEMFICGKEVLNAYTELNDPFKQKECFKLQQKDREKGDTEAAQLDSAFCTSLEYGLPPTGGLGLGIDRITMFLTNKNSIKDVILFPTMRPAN
UniProt Q4DA54, 1-478: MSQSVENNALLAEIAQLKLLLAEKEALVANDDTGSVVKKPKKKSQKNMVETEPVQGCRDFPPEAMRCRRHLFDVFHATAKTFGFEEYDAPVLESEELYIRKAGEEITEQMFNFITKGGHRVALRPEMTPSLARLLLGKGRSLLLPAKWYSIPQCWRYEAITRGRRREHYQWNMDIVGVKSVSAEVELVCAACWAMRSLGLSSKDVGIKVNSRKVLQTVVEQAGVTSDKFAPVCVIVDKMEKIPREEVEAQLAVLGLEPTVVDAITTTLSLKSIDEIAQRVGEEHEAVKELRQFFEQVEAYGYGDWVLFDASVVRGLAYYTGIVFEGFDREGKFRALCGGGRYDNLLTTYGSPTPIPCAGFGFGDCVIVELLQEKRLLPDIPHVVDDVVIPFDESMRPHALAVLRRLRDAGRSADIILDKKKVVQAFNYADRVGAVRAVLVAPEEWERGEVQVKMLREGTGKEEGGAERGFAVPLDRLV

Leishmania in macrophages: 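Cell assay of Leishmania donovani living inside macrophages; the read-out is not stated. Compounds at 30 µM. Higher reads as stronger inhibition (inferred: compounds with an IC50 in retests scored well above the rest). Size under these conditions: about 69,000 compounds, about 1,000 of them at 50% or above in at least one test.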
T. brucei: 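Whole-parasite assay of Trypanosoma brucei over 72 hours; the read-out is not stated. Compounds at 30 µM. Direction is inferred from retests: higher values go with stronger inhibition. Values scatter widely below zero; nearly all retest evidence comes from the higher of the two concentrations used. Size under these conditions: about 64,000 compounds, about 940 of them at 50% or above in at least one test.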
Toxoplasma: 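Assay of Toxoplasma gondii numbers, read through their beta-galactosidase reporter with a colour substrate. Tested at 10 µM. Higher reads as fewer parasites (inferred from which compounds were picked for retests). About 67,000 compounds were tested under these conditions; 0.38% (about 260) showed 50% or more at least once.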
PfKRS1: 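Enzyme assay of the cytosolic lysyl-tRNA synthetase in 384-well plates, read by luminescence. Target: Lysine-tRNA ligase, Plasmodium falciparum 3D7 (UniProt Q8IDJ8). Concentration: 30 µM. Higher reads as stronger inhibition, judged from the few compounds that gave an IC50. Of about 69,000 compounds tested this way, about 49 (0.071%) reached 50% or more in at least one test.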
TcHisRS: 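Enzyme assay of histidyl-tRNA synthetase; the read-out is not stated. Target: Histidine-tRNA ligase, Trypanosoma cruzi CL Brener (UniProt Q4DA54). Concentration: 30 µM. Direction is inferred from retests: higher values go with stronger inhibition. Of about 69,000 compounds tested this way, about 31 (0.045%) reached 50% or more in at least one test.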

Results are given as percent effect.
The controls that fix the scale are not given in the record; negative values are as filed.
The compounds are a random part of those screened.

CCc1nnc2n1CCN(C(=O)CN(C)Cc1ccccc1)C2 gave Leishmania in macrophages: 42.18%; T. brucei: 39.71%; Toxoplasma: -11.24%; PfKRS1: 3.902%; TcHisRS: -0.7576%. Cc1ccc(C(=O)N2CCC3(CCC(=O)N(CCN(C)C)C3)CC2)nc1 gave Leishmania in macrophages: 0.8363%; T. brucei: -7.464%; Toxoplasma: -4.959%; PfKRS1: 3.69%; TcHisRS: 5.202%. Cc1cnc(CCNC(=O)NCCOc2ncccc2Cl)s1 gave Leishmania in macrophages: 30.67%; T. brucei: -16.52%; Toxoplasma: 14.38%; PfKRS1: 4.537%; TcHisRS: 2.128%. With Nc1cc(C(=O)N2CCC(Oc3cccc(C(F)(F)F)c3)CC2)ccn1 the screen gave Leishmania in macrophages: 3.315%; T. brucei: 19.92%; Toxoplasma: -5.064%; PfKRS1: 3.703%; TcHisRS: 13.1%. CCc1ccsc1C(=O)N1CCN(CC(O)CC)CC1 (stereo not given) read Leishmania in macrophages: 8.084%; T. brucei: 0.6606%; Toxoplasma: -0.7786%; PfKRS1: 2.989%; TcHisRS: 1.901%. With Cl.Cl.OC(CN1CCN(Cc2ccccc2)CC1)C1CC1 (stereo not given) the screen gave Leishmania in macrophages: 28.71%; T. brucei: 6.582%; Toxoplasma: -16.24%. Cn1cc(CN2C[C@@H]3CCCO[C@@H]3[C@H](NC(=O)CC3CC3)C2)cn1 gave PfKRS1: 3.598%; TcHisRS: 6.863%.

CNC(=O)c1cccc(CN2CCC(N(C)Cc3ncc(C)o3)C2)c1 (stereo not given) read Leishmania in macrophages: -11.46%; T. brucei: -83.2%; Toxoplasma: -4.555%; PfKRS1: 7.374%; TcHisRS: -3.448%. COCCCC1(CO)CCCN(CCOC)C1 (stereo not given) gave Leishmania in macrophages: 30.62%; T. brucei: -41.92%; Toxoplasma: 7.726%; PfKRS1: 3.293%; TcHisRS: 1.02%. Cc1ccc(C(=O)N(C)Cc2cc(Br)cs2)cn1 read Leishmania in macrophages: 18.07%; T. brucei: -13.9%; Toxoplasma: 5.722%; PfKRS1: 4.919%; TcHisRS: 8.543%. O=C(O)C(F)(F)F.[H][C@@]12CN(Cc3ccoc3)CCO[C@]1([H])CN(C(=O)CCc1ccccc1)C2 gave Leishmania in macrophages: -3.494%; T. brucei: -17.07%; Toxoplasma: -11.48%. COc1ccc(C(=O)N2CCCS2(=O)=O)cc1OC read Leishmania in macrophages: 15.26%; T. brucei: -3.973%; Toxoplasma: 1.258%; PfKRS1: 0.3286%; TcHisRS: 5.65%. With Cc1nn(CN(Cc2ccsc2)C2CC2)c(=O)c2noc(C)c12 the screen gave Leishmania in macrophages: 13.6%; T. brucei: -3.538%; Toxoplasma: 3.461%; PfKRS1: 4.268%; TcHisRS: 5.195%. [H][C@@]12C[C@H](C(=O)NCc3ccccc3)[C@@]([H])(CN(S(=O)(=O)CC(C)C)C1)O2 gave Leishmania in macrophages: 21.13%; T. brucei: -25.35%; Toxoplasma: -5.26%.

The first 2 entries again:

With CCc1nnc2n1CCN(C(=O)CN(C)Cc1ccccc1)C2 the screen gave Leishmania in macrophages: 42.18%; T. brucei: 39.71%; Toxoplasma: -11.24%; PfKRS1: 3.902%; TcHisRS: -0.7576%.
With Cc1ccc(C(=O)N2CCC3(CCC(=O)N(CCN(C)C)C3)CC2)nc1 the screen gave Leishmania in macrophages: 0.8363%; T. brucei: -7.464%; Toxoplasma: -4.959%; PfKRS1: 3.69%; TcHisRS: 5.202%.

Measurements from “University of Dundee, Small-Polar-MMV Screening Library” (2021), ChEMBL document CHEMBL3988442.